No constants are given. Whether binding was seen depends on the method and setting. For some assays here: Binding calls can cover weak binding; strength is not graded here. For some assays here: Sequences can lack the tags named with a protein. For some assays here: Binding seen in cells or lysates may run through a third protein. Blank lines part the entries; values can stand above or below the molecule they belong to.
Key:
[1] = biological target: T1, N-α-Acetyltransferase 10 protein (Naa10p), endogenous (human (endogenous in MNNG/HOS)) (UniProt P41227); experiment: co-IP
T1 sequence: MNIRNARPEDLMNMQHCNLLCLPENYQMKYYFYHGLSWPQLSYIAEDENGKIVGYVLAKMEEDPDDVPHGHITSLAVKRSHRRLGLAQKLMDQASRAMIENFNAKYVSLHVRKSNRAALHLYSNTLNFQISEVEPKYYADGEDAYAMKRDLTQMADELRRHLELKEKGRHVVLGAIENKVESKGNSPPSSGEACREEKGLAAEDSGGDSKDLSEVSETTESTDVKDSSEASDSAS

Sequences of proteins named here, by UniProt entry; tags and fusion partners are left off. A change or cut given only in a name is not applied to a line headed by its entry.
UniProt P08253: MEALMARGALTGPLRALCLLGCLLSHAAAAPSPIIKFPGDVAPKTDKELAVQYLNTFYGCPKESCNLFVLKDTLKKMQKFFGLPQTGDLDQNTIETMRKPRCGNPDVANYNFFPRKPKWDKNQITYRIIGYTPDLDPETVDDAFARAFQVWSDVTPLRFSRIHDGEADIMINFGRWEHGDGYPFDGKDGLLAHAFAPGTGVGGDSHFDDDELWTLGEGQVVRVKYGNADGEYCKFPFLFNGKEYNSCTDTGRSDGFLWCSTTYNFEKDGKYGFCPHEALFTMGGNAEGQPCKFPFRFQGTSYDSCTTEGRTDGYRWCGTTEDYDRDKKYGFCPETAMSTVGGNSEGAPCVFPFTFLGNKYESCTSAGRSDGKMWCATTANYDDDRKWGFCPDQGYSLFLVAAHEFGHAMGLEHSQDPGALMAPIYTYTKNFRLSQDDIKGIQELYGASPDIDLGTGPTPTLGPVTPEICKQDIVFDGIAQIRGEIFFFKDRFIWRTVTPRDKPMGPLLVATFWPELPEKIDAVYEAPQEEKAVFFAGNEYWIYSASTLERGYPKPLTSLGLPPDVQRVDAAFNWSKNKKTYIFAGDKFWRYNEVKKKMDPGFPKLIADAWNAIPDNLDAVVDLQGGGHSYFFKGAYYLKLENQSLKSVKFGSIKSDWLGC
UniProt P14780: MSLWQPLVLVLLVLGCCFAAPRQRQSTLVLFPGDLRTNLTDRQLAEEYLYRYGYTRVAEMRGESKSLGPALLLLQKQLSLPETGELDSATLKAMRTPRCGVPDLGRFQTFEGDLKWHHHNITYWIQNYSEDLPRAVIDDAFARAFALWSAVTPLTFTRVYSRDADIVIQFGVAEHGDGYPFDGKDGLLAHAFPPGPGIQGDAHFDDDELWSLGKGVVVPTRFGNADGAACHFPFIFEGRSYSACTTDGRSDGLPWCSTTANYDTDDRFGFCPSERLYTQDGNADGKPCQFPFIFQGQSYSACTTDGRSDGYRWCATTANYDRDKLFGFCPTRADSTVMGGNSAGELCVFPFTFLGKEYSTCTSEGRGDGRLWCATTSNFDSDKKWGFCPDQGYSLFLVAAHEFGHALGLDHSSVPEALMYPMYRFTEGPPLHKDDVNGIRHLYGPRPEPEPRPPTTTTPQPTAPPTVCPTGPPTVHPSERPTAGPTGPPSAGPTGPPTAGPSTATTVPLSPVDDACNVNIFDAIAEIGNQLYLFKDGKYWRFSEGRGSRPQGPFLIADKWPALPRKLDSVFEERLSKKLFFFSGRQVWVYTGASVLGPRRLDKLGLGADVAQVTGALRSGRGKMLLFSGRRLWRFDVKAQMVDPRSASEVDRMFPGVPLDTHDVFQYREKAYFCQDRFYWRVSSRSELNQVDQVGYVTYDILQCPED

[2] = biological target: T2, Naa15p, endogenous (human (endogenous in MNNG/HOS)) (UniProt Q9BXJ9); experiment: co-IP
T2 sequence: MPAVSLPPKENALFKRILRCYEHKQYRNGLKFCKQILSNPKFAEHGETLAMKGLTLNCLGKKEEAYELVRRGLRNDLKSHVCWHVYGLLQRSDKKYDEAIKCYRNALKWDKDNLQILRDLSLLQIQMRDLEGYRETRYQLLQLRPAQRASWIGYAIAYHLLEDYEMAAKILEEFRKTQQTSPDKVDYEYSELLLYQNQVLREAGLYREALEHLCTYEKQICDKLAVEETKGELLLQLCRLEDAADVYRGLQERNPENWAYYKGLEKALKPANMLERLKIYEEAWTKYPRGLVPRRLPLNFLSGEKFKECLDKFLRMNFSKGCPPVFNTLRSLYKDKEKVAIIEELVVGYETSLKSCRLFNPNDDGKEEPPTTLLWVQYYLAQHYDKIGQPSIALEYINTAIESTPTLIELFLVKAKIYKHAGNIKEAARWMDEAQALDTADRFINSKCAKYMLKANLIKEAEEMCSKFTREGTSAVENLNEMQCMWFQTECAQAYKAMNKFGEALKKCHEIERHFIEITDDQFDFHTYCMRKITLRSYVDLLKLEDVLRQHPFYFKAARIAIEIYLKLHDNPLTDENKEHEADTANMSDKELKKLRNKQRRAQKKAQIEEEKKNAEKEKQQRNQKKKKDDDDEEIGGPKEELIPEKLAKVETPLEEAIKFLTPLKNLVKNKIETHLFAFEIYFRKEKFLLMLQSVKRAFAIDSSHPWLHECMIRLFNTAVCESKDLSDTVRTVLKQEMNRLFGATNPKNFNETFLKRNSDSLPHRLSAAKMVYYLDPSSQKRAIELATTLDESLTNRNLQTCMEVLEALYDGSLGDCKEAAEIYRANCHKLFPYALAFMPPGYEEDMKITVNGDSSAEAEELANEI

[3] = biological target: T3, GST-Naa10p residues 131~235 (C-terminal Naa10p) (UniProt P41227); experiment: condition: 20 µg GST fragment and 2 µg rMMP2 in 1 ml
T3 sequence: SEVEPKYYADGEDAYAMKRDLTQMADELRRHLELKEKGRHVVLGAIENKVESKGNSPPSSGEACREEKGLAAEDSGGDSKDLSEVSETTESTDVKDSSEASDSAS

[4] = biological target: T4, GST-Naa10p residues 60~130 (acetyltransferase domain) (UniProt P41227); experiment: pull-down
T4 sequence: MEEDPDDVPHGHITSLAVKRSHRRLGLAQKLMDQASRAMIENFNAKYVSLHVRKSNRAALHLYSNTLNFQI

GST-Naa10p (full-length) = biological target: T5, GST-Naa10p (full-length) (UniProt P41227); experiment: pull-down
T5 sequence: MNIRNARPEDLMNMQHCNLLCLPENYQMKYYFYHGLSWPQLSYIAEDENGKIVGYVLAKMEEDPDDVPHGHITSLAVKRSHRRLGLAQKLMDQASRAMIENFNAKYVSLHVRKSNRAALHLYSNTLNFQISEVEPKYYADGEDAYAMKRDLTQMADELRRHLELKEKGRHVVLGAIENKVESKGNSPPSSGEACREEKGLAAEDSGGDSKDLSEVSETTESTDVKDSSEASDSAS

[5] = biological target: T6, GST-Naa10p residues 59~235 (N-terminal-deleted Naa10p) (UniProt P41227); experiment: pull-down
T6 sequence: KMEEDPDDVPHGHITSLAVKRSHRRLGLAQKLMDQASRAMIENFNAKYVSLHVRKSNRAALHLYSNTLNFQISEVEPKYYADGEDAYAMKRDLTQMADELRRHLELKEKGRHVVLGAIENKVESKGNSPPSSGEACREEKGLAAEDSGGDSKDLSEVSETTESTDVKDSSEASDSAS

[6] = biological target: matrix metalloproteinase (MMP)-2, endogenous (human (endogenous in MNNG/HOS)) (UniProt P08253); experiment: co-IP

Molecule: MMP-9, endogenous (from UniProt P14780)
binding [1]: no binding

B1: N-α-Acetyltransferase 10 protein (Naa10p), endogenous (protein, UniProt P41227 1-235)
chain: MNIRNARPEDLMNMQHCNLLCLPENYQMKYYFYHGLSWPQLSYIAEDENGKIVGYVLAKMEEDPDDVPHGHITSLAVKRSHRRLGLAQKLMDQASRAMIENFNAKYVSLHVRKSNRAALHLYSNTLNFQISEVEPKYYADGEDAYAMKRDLTQMADELRRHLELKEKGRHVVLGAIENKVESKGNSPPSSGEACREEKGLAAEDSGGDSKDLSEVSETTESTDVKDSSEASDSAS
binding [6]: binds

The next lines start with the values.

binding [1]: binds | binding [2]: no binding
Molecule: matrix metalloproteinase (MMP)-2, endogenous (from UniProt P08253)

binding [3]: no binding | binding [4]: binds | binding (GST-Naa10p (full-length)): binds | binding [5]: binds
Molecule: recombinant human MMP-2 (from UniProt P08253) (enzyme)
